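Enzyme assay of histidyl-tRNA synthetase; the read-out is not stated. Target: Histidine-tRNA ligase, Leishmania infantum (UniProt A4I591). Tested at 30 µM. Direction is inferred from retests: higher values go with stronger inhibition. The assay is labelled LdHisRS but filed under L. infantum. Of about 69,000 compounds tested this way, about 410 (0.6%) reached 50% or more in at least one test.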

Chains of the proteins cited; added tags and fusions are not shown. Residues count along the entry.
UniProt A4I591, 1-473: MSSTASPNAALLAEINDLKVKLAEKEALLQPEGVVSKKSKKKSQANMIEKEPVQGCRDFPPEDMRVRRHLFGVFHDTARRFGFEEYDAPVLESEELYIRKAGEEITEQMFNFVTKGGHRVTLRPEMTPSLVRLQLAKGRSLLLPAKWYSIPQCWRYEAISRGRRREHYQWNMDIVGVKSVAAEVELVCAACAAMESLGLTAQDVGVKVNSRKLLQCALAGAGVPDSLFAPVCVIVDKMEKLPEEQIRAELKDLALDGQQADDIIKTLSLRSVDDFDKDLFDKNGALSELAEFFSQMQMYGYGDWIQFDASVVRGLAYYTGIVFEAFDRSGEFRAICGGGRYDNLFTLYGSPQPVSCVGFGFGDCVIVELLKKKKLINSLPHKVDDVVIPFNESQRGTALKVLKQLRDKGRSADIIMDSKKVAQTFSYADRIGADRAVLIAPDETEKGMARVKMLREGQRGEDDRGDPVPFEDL

Results are given as percent effect. The controls that fix the scale are not given in the record; negative values are as filed. This is an unselected part of the compounds tested.

Compound,Percent Effect
CCNc1cc2c(nn1)CCN(C(=O)c1cc3ccccc3o1)C2,-34.48%
O=C(CNC(=O)c1cc(Cl)ccn1)Nc1nccs1,9.524%
CC(C)c1noc(C[S+]([O-])CC(=O)Nc2ccc(F)c(F)c2)n1 (stereo not drawn),28.57%
COc1cccc(-c2nc(CNCCn3cccn3)cs2)c1,10.64%
Cc1nc(CN2CCCCC2Cn2cccn2)nc2ccccc12 (stereo not drawn),11.11%
CN(C)CCO[C@H]1C[C@@H](O)C12CCN(c1nccc3ccccc13)CC2,11.57%
CN(Cc1cccnc1)C1CC2(CCN(c3ncc(F)cn3)CC2)C1,10.53%
O=C(NCc1ccco1)c1cc(N2CC[C@@H](O)C2)ccn1,20%
N#Cc1cccnc1N1CCN(C(=O)c2cccs2)CC1,9.402%
O=C(O)Cc1cn2cc(C(F)(F)F)ccc2n1,16.67%
CN(C)CC(=O)N1CCC2(CC1)COC(COc1ccccn1)C2 (stereo not drawn),23.53%
O=C(C1CCC1)N1C[C@@H]2CCN(c3cccnc3)C[C@@H]2C1,7.692%
Cc1ccc(OCCC(=O)NC2CCc3nccn3C2)cc1 (stereo not drawn),22.86%
N#CCCN(Cc1cccnc1)C(=O)c1cccc(-n2cnnn2)c1,15.18%
CCC1(c2ccc(NS(=O)(=O)c3cccs3)cc2)CCC(=O)NC1=O (stereo not drawn),9.821%
Cc1ccc2cc(CN(C)Cc3ccncn3)c(=O)[nH]c2c1,25.83%
Cc1ccc(Oc2ncccc2CNC(=O)C2COC(=O)N2)c(F)c1F (stereo not drawn),20.48%
CCOCc1ccccc1NC(=O)NCC(C)(O)c1cc(C)oc1C (stereo not drawn),15.49%
CN(CCCn1cnc2c(N)ncnc21)Cc1ccccc1,20.41%
CC(=O)N1CCC(N2CCN(Cc3ccc(C)o3)C(CCO)C2)CC1 (stereo not drawn),4.819%
Fc1ccc(CN2CCOCC3(CCN(Cc4nccs4)C3)C2)cc1 (stereo not drawn),20%
Cc1nn(C)c(C)c1OCC(=O)N1CCCCC1,20%
CN(Cc1ccccc1)C(=O)CCNc1ncccc1C#N,8.108%
Cc1noc(-c2ccnc(Oc3ccc(CN4CCCC4)cc3F)c2)n1,11.48%
COc1ccc(NC(=O)N(C)Cc2ccco2)cn1,16%
O[C@H]1CCN(CCCOc2ccccc2F)C[C@@]12CCCO2,9.859%
NC(=O)c1cnc(NC2CCC(c3ccccc3)CC2)c(Cl)c1 (stereo not drawn),15.87%
Cc1ccoc1-c1nnc(CN2CCCC(Cn3cncn3)C2)o1 (stereo not drawn),14.89%
COC(=O)C(O)C1CCN(CCc2ccccn2)CC1 (stereo not drawn),-3.896%
Cc1cnn(CC2CCCN2C(=O)CCc2nc3ccccc3[nH]2)c1 (stereo not drawn),10.11%
Cc1nsc(NC2CCOC3(CCCCC3)C2)n1 (stereo not drawn),8.571%
O=C(c1ccc(F)cc1)N1C[C@H]2CCC[C@@]2(COCc2ccccn2)C1,13.53%
Cc1cc(C)n(C2CN(CC(=O)N3CCOCC3)C2)n1,13.51%
CCCOc1ccc(CNCCn2cccn2)cc1,12.5%
Cc1ccc(CN(C)C)cc1NC(=O)C1CC1,23.94%
O=C(CNC(=O)N1CCc2c([nH]c3ccc(Cl)cc23)C1)NCCCO,10.53%
O=C(N[C@@H]1CCC[C@@H](N2CCOCC2)[C@@H]1O)c1cc2ccccc2[nH]1,-11.58%
Cc1cccc(CN2C(=O)C[C@H]3[C@@H]2CCN3CC2CC2)n1,29.27%
Cc1ccc(S(N)(=O)=O)cc1C(=O)NC1CCCN(C)C1 (stereo not drawn),18.37%
CC(C)C(NC(N)=O)C(=O)NCc1ccc(N2CCCC2)nc1 (stereo not drawn),11.4%
CCCN1CCCn2c(nc(CNC(=O)c3ccsc3)cc2=O)C1,11.11%
O=C(Cn1cccnc1=O)NCc1cccnc1OCC(F)(F)F,11.11%
CCn1ncc2c1C(COC)CN(Cc1cccnc1)C2 (stereo not drawn),18.06%
COc1ccc(CN2CCOC[C@H](OCCC(C)C)C2)cc1,24.32%
O=C(Nc1cc(-c2ccncc2)no1)C1CC1,20.59%
CN(C)CCOCC1CN(CC2CCOCC2)Cc2nnn(C)c21 (stereo not drawn),15.09%
O[C@@H]1CN(c2nc3ccccc3s2)CC[C@H]1c1ccc2c(c1)OCO2,14.29%
N#Cc1ccc(N2CCCN(CC(=O)N3CCNC(=O)C3)CC2)cc1,14.04%
COC1CCN(c2ccc(NC(=O)Cn3cccn3)cc2)CC1,10.26%
Cc1cc(C)c2nc(CN3CCC(CN)CC3)cc(O)c2c1,16.67%
CC(C)OCCC(=O)Nc1ncn(CC(=O)N2CCCCCC2)n1,10.34%
CCN1CCN(S(=O)(=O)c2cc(C)c(C)cc2Br)CC1,8.85%
CCOc1ccc(CCC(=O)N2CC[C@H]3C(=O)NCCO[C@H]3C2)cc1,18%
Cc1ccc(C(CNC(=O)NCc2ccccn2)N2CCOCC2)o1 (stereo not drawn),-38.53%
Cc1cc(CN2CCN(C(=O)NC(C)Cn3ccnc3)CC2)no1 (stereo not drawn),23.2%
CN(c1ncnc2ccccc12)C1CCCN(c2cccnn2)C1 (stereo not drawn),33.87%
COc1ccc(C[C@H]2CN(C(=O)CN(C)C)CC[C@H]2OC)cc1,9.756%
N#Cc1ccc(Cl)cc1NCC1CC1,5.882%
COCC(=O)N1CCCCC1c1ccnc(Nc2cnccn2)n1 (stereo not drawn),8%
CN(C)c1ncc(CNC2CC(=O)N(CCc3cccc(Cl)c3)C2)s1 (stereo not drawn),5.319%
Cc1ccsc1-c1nnc(C2CCN(Cc3ccc(F)cc3)CC2)o1,22.22%
CCN1CCN(Cc2c(C3CCCC3)[nH]c3ncccc23)CC1,16.49%
CN(CCc1ccc2c(c1)CCO2)C1CCS(=O)(=O)CC1,2.74%
OCCOCCNCC1(c2ccc(F)cc2)CCOC1 (stereo not drawn),4%
COc1ccc2nc(C[C@@H]3C[C@@H](C(C)C)[C@H](CN(C)C)C=C3C)[nH]c2n1,36.11%
CN(C)c1ccc(CNC2=NCCCN2)cc1,5.128%
CC(=O)N[C@@H]1CN(C2CCN(c3cccc(Cl)c3)CC2)C[C@H]1C(C)C,13.16%
Cc1nc(C(=O)Nc2cc(N3CCNC3=O)ccc2Cl)cs1,9.948%
CC(c1cccc(-c2ncccc2C#N)c1)N(C)C (stereo not drawn),18.68%
CN(C)S(=O)(=O)N1C[C@@H]2CC[C@H](C1)N(Cc1cccc(C#N)c1)C2,19.35%
CC(=O)N1CCCC1(C)c1nc(C)no1 (stereo not drawn),7.246%
CC(C)(CN1CCC(Cc2cccc(C(=O)O)c2)C1)N1CCOCC1 (stereo not drawn),4.918%
Cc1occc1C(=O)N1C[C@H]2CCCC(OCc3cccnc3)[C@H]2C1 (stereo partly drawn),2.857%
Cc1nccn1-c1cc(CNC(=O)C2CCC(=O)N2)ccn1 (stereo not drawn),16.13%
Cc1cccc(C)c1Nc1noc2c1CN(C(=O)c1cn(C)cn1)CC2,-2.797%
Cc1ncc(CN2CCN(c3ccc4nncn4n3)C(C)C2)s1 (stereo not drawn),10.43%
CC(C)C1CCCN1C(=O)c1ccc(-n2ncc(C#N)c2N)cc1 (stereo not drawn),25.71%
CNC(=O)[C@H]1C[C@@H]2CN(c3cc(OC)ncn3)C[C@@H]2N1C(C)C,-7.018%
CC(=O)N(Cc1ncc(C)o1)C1CCN(Cc2csc(C)n2)C1 (stereo not drawn),16.81%
Cc1ccc(OCC(=O)NS(=O)(=O)c2c(C)noc2C)cc1C,8.511%
Cc1cc(NS(=O)(=O)c2cnc3onc(C)c3c2)no1,8.901%
Cc1c(C)n(CC(O)CN2CCOCC2)c2c(Cl)cccc12 (stereo not drawn),3.39%
CCCn1cnc2c(cnn2-c2cccc(C)c2C)c1=O,19.51%
CCc1ccccc1NC(=O)C1CN(C(C)=O)C1,-4.274%
CN(C)C[C@H]1CC[C@@H](Cc2ccc3c(cnn3C)c2)O1,6.579%
CCc1n[nH]c(C2CN(C(=O)c3cc4c(s3)CCC4)CCO2)n1 (stereo not drawn),8.475%
Cc1cc(NCCNc2cccnc2)nc(N)n1,15.93%
Cc1nnc(NC(=O)NCc2ccc(N3CCNC(=O)C3)cc2)s1,39.82%
Cc1cccc(CNc2n[nH]c(C)n2)c1,11.9%
CC(NC(=O)N1CCC2(C1)OCCO2)c1cccc(Cl)c1 (stereo not drawn),-69.01%
Cc1nn(C)c(C)c1C1CCCN1CC(=O)NCc1ccccn1 (stereo not drawn),7.018%
Cc1cc(C)n(C2CN(CC(=O)NCc3ccccn3)C2)n1,4.878%

For reference, 11 entries once more:

Result for O=C(c1ccc(F)cc1)N1C[C@H]2CCC[C@@]2(COCc2ccccn2)C1 was 13.53%.
Result for COC1CCN(c2ccc(NC(=O)Cn3cccn3)cc2)CC1 was 10.26%.
Result for CN(CCc1ccc2c(c1)CCO2)C1CCS(=O)(=O)CC1 was 2.74%.
Result for CCc1n[nH]c(C2CN(C(=O)c3cc4c(s3)CCC4)CCO2)n1 (stereo not drawn) was 8.475%.
Result for CCCN1CCCn2c(nc(CNC(=O)c3ccsc3)cc2=O)C1 was 11.11%.
Result for CC(c1cccc(-c2ncccc2C#N)c1)N(C)C (stereo not drawn) was 18.68%.
Result for Cc1cnn(CC2CCCN2C(=O)CCc2nc3ccccc3[nH]2)c1 (stereo not drawn) was 10.11%.
Result for O=C(N[C@@H]1CCC[C@@H](N2CCOCC2)[C@@H]1O)c1cc2ccccc2[nH]1 was -11.58%.
Result for COc1cccc(-c2nc(CNCCn3cccn3)cs2)c1 was 10.64%.
Result for CN(Cc1ccccc1)C(=O)CCNc1ncccc1C#N was 8.108%.
Result for Cc1cccc(CNc2n[nH]c(C)n2)c1 was 11.9%.

Source: ChEMBL document CHEMBL3988442, “University of Dundee, Small-Polar-MMV Screening Library” (2021).